This is one part of the list.

For the experiment, the target named is T1, OsSMF1 (Oryza sativa, UniProt Q6ZLB0 1-436).
T1 sequence: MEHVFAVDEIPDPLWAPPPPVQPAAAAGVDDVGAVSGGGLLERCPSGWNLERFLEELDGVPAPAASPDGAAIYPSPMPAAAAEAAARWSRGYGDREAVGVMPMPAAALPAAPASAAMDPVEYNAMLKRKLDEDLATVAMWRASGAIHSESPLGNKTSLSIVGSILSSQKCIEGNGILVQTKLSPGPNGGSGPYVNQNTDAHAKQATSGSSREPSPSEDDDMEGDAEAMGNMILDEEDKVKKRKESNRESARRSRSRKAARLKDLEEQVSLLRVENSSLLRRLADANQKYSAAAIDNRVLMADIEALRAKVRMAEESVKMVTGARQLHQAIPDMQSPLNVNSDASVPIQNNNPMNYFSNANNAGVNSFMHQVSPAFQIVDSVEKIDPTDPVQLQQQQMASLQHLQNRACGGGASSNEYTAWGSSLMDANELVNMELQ
Description: protein-binding microarray (RPBM); PBS, 2% BSA, 51.3 ng/ul salmon testes DNA, 50 uM zinc acetate, 200 nM TF, 25 C, 1 h; high values mean tight binding. As to conditions: protein: recombinant; tags: N-terminal polyhistidine and DsRed monomer fusion (pET32a); chain copies: 2; label: CyDye5-dUTP incorporated in the synthesized complementary strand; 3' TTTTT single-stranded linker to array surface; dsDNA, one strand shown. The essentials:
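Polyhistidine-tagged DsRed fusions of transcription factors, joined at the N-terminus, were expressed in E. coli BL21-CodonPlus and isolated on Ni–NTA. They were incubated at 200 nM for 1 h at 25 °C on a custom Agilent array, double-stranded and BSA-blocked, in PBS with 2% BSA, salmon testes DNA and 50 µM zinc acetate. The binding signal is per-feature fluorescence intensity (arbitrary units) read on an Axon 4000B scanner after washing.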
In the case of “CAGATAAGCTTCAGATTAAGAGCAGGTATAATAGCAGGCTCGGAGTCACCTAGTGCAG”, the binding signal is 3220 fluorescence intensity (a.u.).
As for “TAACTTAACTGTCCTGCTTACTCATTGGATGAATTGACAGCGGAGTCACCTAGTGCAG”, the figure is 3650 fluorescence intensity (a.u.); as for “AGGGGAAAGGGGAATTGACGTGGCAAGCCCACATGTGGGTCGGAGTCACCTAGTGCAG”, 15300 fluorescence intensity (a.u.).
Next, “ACAATGTGCCTTGATGGCGTAGAATGCAAGAGCTCACTATCGGAGTCACCTAGTGCAG”: 3190 fluorescence intensity (a.u.).
Next, “CGTCGCTCTCGTCCCTGGCGATCTCCACGCCGACGCCCCGCGGAGTCACCTAGTGCAG”: 3200 fluorescence intensity (a.u.); “CGCCTCTGCGGTCTCCTTCGTCACCCGCGCGTCAACCAACCGGAGTCACCTAGTGCAG”: 4290 fluorescence intensity (a.u.).
Turning to “TTCGAACGAACTTGGCCACGTGTAACAAAGATTTAGCATGCGGAGTCACCTAGTGCAG”, the binding signal was 12200 fluorescence intensity (a.u.).
For the sequence “TACGGTCTGAACACCCATGTCATCAAATTGGTTGCCCCAACGGAGTCACCTAGTGCAG”, the binding signal was 6280 fluorescence intensity (a.u.).
As for “TTCTTCAGTTTGGTAATGTTCCAAAGCCAGATTATGTGTACGGAGTCACCTAGTGCAG”, the figure is 3820 fluorescence intensity (a.u.); as for “CGCAGCAAGCGTCACGTCACCAACTGTTTGCTCCAACTGTCGGAGTCACCTAGTGCAG”, 9370 fluorescence intensity (a.u.).
With “GTATAAAATCAGATGGGTTTGTAGTTAGGGTACAAATTTCCGGAGTCACCTAGTGCAG”, the binding signal was 3170 fluorescence intensity (a.u.).
As for “AGTCAGTCCGAATTGGACTGTGCCGGCATTGTCATCGCATCGGAGTCACCTAGTGCAG”, the figure is 4760 fluorescence intensity (a.u.); as for “CTGGTCGGTTCCGCTGACCACCCGTGACTCTTACCACGACCGGAGTCACCTAGTGCAG”, 3150 fluorescence intensity (a.u.).
As for “AAGCCAAAACTGCTGGCATCACGGCTGATGTCACGGTCTCCGGAGTCACCTAGTGCAG”, the figure is 8750 fluorescence intensity (a.u.); as for “GTAATTAGTTATTTGAGTAAAGTGTACGGGCGATCCTTAACGGAGTCACCTAGTGCAG”, 3530 fluorescence intensity (a.u.); as for “TTGGACTTTAGTGGAGTAGTCATCAATCATTAATGGTTGCCGGAGTCACCTAGTGCAG”, 4040 fluorescence intensity (a.u.).
Next, “CGAACCATCGCGTCGCGTCCCCGTGTCTGTCGAGCGAGATCGGAGTCACCTAGTGCAG”: 3280 fluorescence intensity (a.u.); “TGAATTCTTATTTCAGCTATTAAAATCTGCACGTCAATTCCGGAGTCACCTAGTGCAG”: 3960 fluorescence intensity (a.u.); “GTCGGATTGGTGCTTGCATGATCTGTTGGTAGATGGGCTGCGGAGTCACCTAGTGCAG”: 3180 fluorescence intensity (a.u.).
Regarding “CCCTCCGTGGACACGTGTAGTCTATCCACCAAGTACACAGCGGAGTCACCTAGTGCAG”, the binding signal is 5990 fluorescence intensity (a.u.).
As for “TAGTGTCAACCGAATATGACTGGGCTATCTGTTCGTTTCTCGGAGTCACCTAGTGCAG”, the figure is 4700 fluorescence intensity (a.u.).
Next, “CAATAGAAGGCCCAAAGCTGATTCAGCGAGCCGTTCTCGCCGGAGTCACCTAGTGCAG”: 3400 fluorescence intensity (a.u.).
Next, “GCCAATGACGATAAGAGCAAAGACGGACGGGAGGGGAGGGCGGAGTCACCTAGTGCAG”: 3530 fluorescence intensity (a.u.); “TCTACTTGTAAAGGCCCAAGGCCCATGTGGCCGTGCACCTCGGAGTCACCTAGTGCAG”: 19800 fluorescence intensity (a.u.); “AATTAATCACTTGCTAATGACACGTCTCATTTTGCGTGCTCGGAGTCACCTAGTGCAG”: 7580 fluorescence intensity (a.u.).
Turning to “CCTCCTCCCATCGTTGCTGCCACCGCGTCTCCTCCCAATCCGGAGTCACCTAGTGCAG”, the binding signal was 3420 fluorescence intensity (a.u.).
For the sequence “TTAGTTGTTCTTGTTCTCTTGGTTGGGACGTGGAGAGTTGCGGAGTCACCTAGTGCAG”, the binding signal is 3440 fluorescence intensity (a.u.).
As for “CTTTGTAATACTTTGTAGGACTTTCTGTTAATATACTCCTCGGAGTCACCTAGTGCAG”, the figure is 30100 fluorescence intensity (a.u.); as for “GATATTTCTCTTCCCATCCGGCAACCGACAGGGGAGCATTCGGAGTCACCTAGTGCAG”, 20000 fluorescence intensity (a.u.).
Next, “TAGCCGTTAGTGCCACGTGGCGCCTTCCCATTCGACCGCCCGGAGTCACCTAGTGCAG”: 40600 fluorescence intensity (a.u.); “ATTTTATGCTAGATGGTGACGTTACACGTGCCATTATTCACGGAGTCACCTAGTGCAG”: 10400 fluorescence intensity (a.u.); “AGAACCTTCCGCGCTTCCGTGCTCCCCACCGCCACCTCGCCGGAGTCACCTAGTGCAG”: 3430 fluorescence intensity (a.u.).
As for “AGAAATCTGCAATGTGGGTTGGTGATGAAAATGGTGATGCCGGAGTCACCTAGTGCAG”, the figure is 6180 fluorescence intensity (a.u.); as for “TGGAAAGAATACAGTATGATATGGTCTTATTTTGTCTGCCCGGAGTCACCTAGTGCAG”, 41200 fluorescence intensity (a.u.); as for “ATATTTTATCATCATCAGCCGATTGCCTTTATATCATCATCGGAGTCACCTAGTGCAG”, 3140 fluorescence intensity (a.u.).
As for “TTGCCCAGTTCCTCATTGACCAGCACATCAACTTTGATTGCGGAGTCACCTAGTGCAG”, the binding signal was 3820 fluorescence intensity (a.u.).
Take “CTTTTGGATGCCAGCTCACAGCTCATCAATACATCACCATCGGAGTCACCTAGTGCAG”: the binding signal was 11200 fluorescence intensity (a.u.).
As for “GACGCGTCGGTGCTGATTGACTCGACGGCCGGCAACGTGGCGGAGTCACCTAGTGCAG”, the figure is 3810 fluorescence intensity (a.u.); as for “AACATATCGTACGTATAGCAGCCCTCGAAAGAGTAGAGCCCGGAGTCACCTAGTGCAG”, 32000 fluorescence intensity (a.u.).
As for “AGGCATGCATGCTCATGTCAGACGTGACGACTTGCAAAATCGGAGTCACCTAGTGCAG”, the figure is 4560 fluorescence intensity (a.u.); as for “GGATTTTGCGAGGTTTCCTCTTCCTCCACGCTCTCGAATCCGGAGTCACCTAGTGCAG”, 36300 fluorescence intensity (a.u.); as for “CCAACCAACATCCCACATCGAACCATGCATTATTTATGAACGGAGTCACCTAGTGCAG”, 17300 fluorescence intensity (a.u.).
Next, “TAGTAGCTTAATTGCTAGCTAGTGGTCACTGGTCAGTATACGGAGTCACCTAGTGCAG”: 4030 fluorescence intensity (a.u.).
In the case of “TTTTATCAGCTGCTTGGATGTGCCACGTAGCACGAGGTGCCGGAGTCACCTAGTGCAG”, the binding signal is 14600 fluorescence intensity (a.u.).
For the sequence “ATCAACGGATGATCATTAGCACGAAGAAGATGACGTGGCTCGGAGTCACCTAGTGCAG”, the binding signal is 31800 fluorescence intensity (a.u.).
Next, “TTAGTATGAACAAAGGCCATGACCTGGAGGAGATAAAAGGCGGAGTCACCTAGTGCAG”: 3480 fluorescence intensity (a.u.).
Next, “GTTGGTTAATTTAGTGTTGTTGGTTGCTTGGCGACGTCATCGGAGTCACCTAGTGCAG”: 3860 fluorescence intensity (a.u.); “AACTGGGGTTTAATCCGCATCACCAAACACCCCTCCACTTCGGAGTCACCTAGTGCAG”: 4040 fluorescence intensity (a.u.).
As for “TGGCGCTGACCTTGGCTACTTAGAGCCCGGCCGAGGCCGCCGGAGTCACCTAGTGCAG”, the figure is 30000 fluorescence intensity (a.u.); as for “ATATATATCTCCATCTCGAGTGCCTGGATCACATCAGCAACGGAGTCACCTAGTGCAG”, 3460 fluorescence intensity (a.u.).
With “TACTGTTGTTTGCATGTGTAAACAAATTCAAATGCATTAACGGAGTCACCTAGTGCAG”, the binding signal is 5410 fluorescence intensity (a.u.).
In the case of “GCTGACGTCGGCATGACGTCAGCGCCCGATTTATGTGTAACGGAGTCACCTAGTGCAG”, the binding signal was 21200 fluorescence intensity (a.u.).
Turning to “TCCTCGGCCGCAGTATCGTATCCGCACCTCCAGCTCAGTGCGGAGTCACCTAGTGCAG”, the binding signal was 3850 fluorescence intensity (a.u.).
As for “CAGAAAAGACGCCGCTGATGTGGTGCTGGAAACGTGGGTGCGGAGTCACCTAGTGCAG”, the figure is 4180 fluorescence intensity (a.u.).
